In article PMC11304230:
Results are given in words; binding and its absence hold for the method and conditions named. In cells and extracts the contact can be indirect. Here binding means that the protein was enriched with, or labelled near, the bait; the list need not be complete.

Amino acid sequences for entries named in this document (tags omitted). Residues count along the entry.
UniProt Q6X4U4, residues 24-206: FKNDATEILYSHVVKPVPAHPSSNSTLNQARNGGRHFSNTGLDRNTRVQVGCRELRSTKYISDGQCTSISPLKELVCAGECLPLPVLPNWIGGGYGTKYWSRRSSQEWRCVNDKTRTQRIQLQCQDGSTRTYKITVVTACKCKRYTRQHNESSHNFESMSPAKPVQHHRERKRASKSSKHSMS
UniProt O14646: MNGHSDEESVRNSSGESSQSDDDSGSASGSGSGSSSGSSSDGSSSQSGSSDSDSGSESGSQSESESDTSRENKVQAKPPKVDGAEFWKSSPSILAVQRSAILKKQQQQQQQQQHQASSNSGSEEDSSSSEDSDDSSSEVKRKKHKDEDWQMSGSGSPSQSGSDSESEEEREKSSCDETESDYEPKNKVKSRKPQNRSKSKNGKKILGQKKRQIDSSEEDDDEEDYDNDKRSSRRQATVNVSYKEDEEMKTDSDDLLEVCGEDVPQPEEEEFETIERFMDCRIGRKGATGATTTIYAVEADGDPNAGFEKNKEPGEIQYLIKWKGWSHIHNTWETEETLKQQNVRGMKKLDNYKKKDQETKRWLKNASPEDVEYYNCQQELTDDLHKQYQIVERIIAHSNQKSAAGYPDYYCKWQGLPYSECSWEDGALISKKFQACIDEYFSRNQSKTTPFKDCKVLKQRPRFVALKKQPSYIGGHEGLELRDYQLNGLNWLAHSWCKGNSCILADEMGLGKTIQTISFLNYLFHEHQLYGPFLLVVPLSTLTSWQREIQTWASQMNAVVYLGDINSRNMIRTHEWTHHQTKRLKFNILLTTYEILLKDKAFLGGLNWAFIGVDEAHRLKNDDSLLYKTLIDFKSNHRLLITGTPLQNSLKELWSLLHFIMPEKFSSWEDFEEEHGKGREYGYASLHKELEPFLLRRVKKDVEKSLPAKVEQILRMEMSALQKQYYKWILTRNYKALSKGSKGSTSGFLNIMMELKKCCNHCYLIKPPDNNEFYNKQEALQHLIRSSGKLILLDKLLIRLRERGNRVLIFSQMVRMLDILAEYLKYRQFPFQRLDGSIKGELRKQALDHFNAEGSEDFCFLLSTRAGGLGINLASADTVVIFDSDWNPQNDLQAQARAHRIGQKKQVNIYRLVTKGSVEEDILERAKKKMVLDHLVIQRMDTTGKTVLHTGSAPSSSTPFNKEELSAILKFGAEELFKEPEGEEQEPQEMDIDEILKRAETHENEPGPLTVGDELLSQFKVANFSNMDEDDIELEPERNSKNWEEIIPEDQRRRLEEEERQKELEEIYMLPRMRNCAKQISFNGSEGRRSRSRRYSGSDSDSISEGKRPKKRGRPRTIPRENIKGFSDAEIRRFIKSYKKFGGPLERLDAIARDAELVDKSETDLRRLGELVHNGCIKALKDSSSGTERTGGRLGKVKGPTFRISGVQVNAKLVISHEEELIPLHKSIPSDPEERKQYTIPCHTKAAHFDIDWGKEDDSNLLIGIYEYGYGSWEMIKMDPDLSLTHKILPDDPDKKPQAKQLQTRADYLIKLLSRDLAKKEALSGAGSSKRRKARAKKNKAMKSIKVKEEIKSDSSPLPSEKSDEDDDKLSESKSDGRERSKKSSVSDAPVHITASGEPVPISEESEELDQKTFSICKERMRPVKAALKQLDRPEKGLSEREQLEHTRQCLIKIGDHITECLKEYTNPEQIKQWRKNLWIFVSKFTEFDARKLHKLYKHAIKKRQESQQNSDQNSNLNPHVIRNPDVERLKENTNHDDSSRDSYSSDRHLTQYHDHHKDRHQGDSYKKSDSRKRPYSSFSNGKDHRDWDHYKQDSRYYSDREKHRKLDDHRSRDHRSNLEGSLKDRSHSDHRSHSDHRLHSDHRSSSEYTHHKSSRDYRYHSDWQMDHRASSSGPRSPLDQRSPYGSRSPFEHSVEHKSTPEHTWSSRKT

Biological target: FLAG-tagged SOSTDC1 stably overexpressed in SUM159 cells (UniProt Q6X4U4)
Experiment: affinity purification with mass spectrometry; co-IP samples of SUM159-CTRL or SOSTDC1 and MDA-MB-231-CTRL or SOSTDC1 cells; Q Exactive, Maxquant

Substance: Endogenous CHD1 of SUM159 cells (from UniProt O14646 1-1710)
- binding: binds
